The list shows only some results of the screen, not a fair sample: it gathers tests that were run many times, whatever their T/C, doses with no T/C, and many T/C values between a quarter and a half above the control. Further doses and runs are listed elsewhere. T/C: endpoint of the treated group in % of that of the vehicle group. Schedule codes are those of the source, taken here to give the interval after Q, in days (D) or hours (H), and the number of doses after X. Some entries hold several experiments; their values stand side by side, smallest first. Some T/C values are negative: the treated tumours shrank. Some T/C values carry the count of animals alive at the toxicity check (mostly the fifth day); without a count, all were alive then. Some doses have a count of surviving animals in place of a T/C: the source files T/C as zero there, which appears to mark a toxic dose or a test without result, not a measured value. Counts of survivors are from the toxicity check (mostly the fifth day) where no day follows; animals may have died later.

The experiment has as its system MX-1 breast xenograft, nude mice, tumor weight change. The experiment in a line: NCI In Vivo Anticancer Drug Screen. Data for tumor model Human Mammary Carcinoma MX-1 Xenograft (subcutaneous) in NU/NU Swiss (nude) mice. Conditions: T/C endpoint: optimum tumor weight change, schedule: Q04DX003 (ip), higher T/C = larger tumour. Here is the method:
The antitumor activity of compounds was measured in mice bearing transplantable tumors. Survival or tumor size were measured and the results are expressed as the measurement made in the treated group (T) divided by the measurement made in the vehicle treated control group (C). The tumor model used in this assay is Human Mammary Carcinoma MX-1 Xenograft (subcutaneous) in NU/NU Swiss (nude) mice
Background: In xenograft studies the graft and the host belong to different species.

The mark [1] stands for this setting: dose: 16.0 mg/kg/injection, vehicle: saline.
[2] abbreviates: dose: 12.0 mg/kg/injection, vehicle: saline.
Setting [3] is: dose: 400.0 mg/kg/injection, vehicle: Klucel (hydroxypropylcellulose) (HPC).
Setting [4] is: dose: 100.0 mg/kg/injection, vehicle: Klucel (hydroxypropylcellulose) (HPC).
[5] abbreviates: dose: 200.0 mg/kg/injection, vehicle: Klucel (hydroxypropylcellulose) (HPC).
[6] abbreviates: dose: 50.0 mg/kg/injection, vehicle: saline.
[7] abbreviates: dose: 100.0 mg/kg/injection, vehicle: saline.
Where [8] appears, read: dose: 200.0 mg/kg/injection, vehicle: saline.
Where [9] appears, read: dose: 400.0 mg/kg/injection, vehicle: saline.
The mark [10] stands for this setting: dose: 800.0 mg/kg/injection, vehicle: saline.

With `CN1N=C(N)c2cn(C3OC(COP(=O)(O)O)C(O)C3O)c3ncnc1c23` (centres undefined), the T/C is, setting by setting: (dose: 50.0 mg/kg/injection, vehicle: water, evaluated on day 32) 29 and 104 % of control; (dose: 50.0 mg/kg/injection, vehicle: water, evaluated on day 35) 94 % of control; (dose: 100.0 mg/kg/injection, vehicle: water, evaluated on day 32) 30 % of control [4 of 5 alive on day 34]; (dose: 100.0 mg/kg/injection, vehicle: water, evaluated on day 35) 12 % of control [4 of 5 alive on day 37]. Moreover, the survivor count is 0 of 5 on day 40 (dose: 50.0 mg/kg/injection, vehicle: water); 0 of 5 on day 40 and 3 of 5 on day 34 (dose: 100.0 mg/kg/injection, vehicle: water); 0 of 5 on day 34, 2 of 5 on day 34, 2 of 5 on day 37, 2 of 5 on day 40 (dose: 200.0 mg/kg/injection, vehicle: water).
On to `Cc1c(N)nc(C(CC(N)=O)NCC(N)C(N)=O)nc1C(=O)NC(C(=O)NC(C)C(O)CC(=O)NC(C(=O)NC(OC1OC(C)C(N)C(O)C1O)C(O)c1nc(-c2nc(C(=O)NCCCC(N)CC(=O)NCCCNCCCCN)cs2)cs1)C(C)O)C(OC1OC(CO)C(O)C(O)C1OC1OC(CO)C(O)C(OC(N)=O)C1O)c1cnc[nH]1` (centres undefined), for which the survivor count under setting [1] is 2 of 5 on day 34 and the survivor count (dose: 32.0 mg/kg/injection, vehicle: saline) is 0 of 5 on day 34.
Take `N/C(=N\O)c1cn(C2OC(CO)C(O)C2O)c2ncnc(N)c12` (centres undefined): under “dose: 40.0 mg/kg/injection, vehicle: Klucel (hydroxypropylcellulose) (HPC)”, the survivor count is 0 of 5 on day 38.
With `C[n+]1c(-c2cccc3ccccc23)c2cc(N)ccc2c2ccccc21`, the survivor count (dose: 0.75 mg/kg/injection, vehicle: saline) is recorded as 3 of 5 on day 37 and the survivor count under setting [2] is 3 of 5 on day 35.
For the molecule `Cc1cc(N(CCOS(C)(=O)=O)CCOS(C)(=O)=O)ccc1C=Nc1ccc(-c2nc(Cc3ccccc3)sc2C)cc1`, the survivor count under setting [3] is 0 of 5 on day 42.
As to `O=[N+]([O-])/C=C\c1ccc2c(c1)OCO2`, the T/C (dose: 100.0 mg/kg/injection, vehicle: Klucel (hydroxypropylcellulose) (HPC), evaluated on day 34) is 128 % of control. In addition, the survivor count under setting [3] is 3 of 5 on day 36.
As to `CC(C)CCCCCCCCCCCCC(=O)NCC(=O)NC1C(O)C(O)C(Nc2ncnc3nc[nH]c23)OC1C(O)CO` (centres undefined), the survivor count (dose: 24.0 mg/kg/injection, vehicle: suspension in saline) is 0 of 5 on day 36.
Take `CCOC(=O)C1C2OC(=O)C(C(=O)C2CN(CCCl)CCCl)C1C1CC=C(CC2=CCC(C3C4C(=O)OC(C(CN(CCCl)CCCl)C4=O)C3C(=O)OCC)CC2)CC1` (centres undefined): the survivor count is, setting by setting: under setting [4], 2 of 5 on day 40 and 3 of 5 on day 36; under setting [5], 0 of 5 on day 36 and 0 of 5 on day 40.
In the case of `COC1C(C)OC(OC2CC(C)(O)Cc3cc4c(c(O)c32)C(=O)c2c(O)cc3c(c2C4=O)OC2OC3(C)C(O)C(N(C)C)C2O)C(OC)C1(C)OC` (centres undefined), the survivor count (dose: 2.5 mg/kg/injection, vehicle: Klucel (hydroxypropylcellulose) (HPC)) was 3 of 5 on day 36.
Consider `CNC(=O)ON(C(C)=O)C(=O)NC`, for which the survivor count by setting is: (dose: 25.0 mg/kg/injection, vehicle: saline) 3 of 5 on day 39; under setting [6], 1 of 5 on day 40; under setting [7], 0 of 5 on day 35 and 2 of 5 on day 39; under setting [8], 0 of 5 on day 35, 0 of 5 on day 39, 0 of 5 on day 40. The T/C (dose: 50.0 mg/kg/injection, vehicle: saline, evaluated on day 33) is 23 % of control; the T/C (dose: 50.0 mg/kg/injection, vehicle: saline, evaluated on day 34) is 122 % of control; the T/C (dose: 50.0 mg/kg/injection, vehicle: saline, evaluated on day 39) is 107 % of control [4 of 5 alive on day 39]; the T/C (dose: 100.0 mg/kg/injection, vehicle: saline, evaluated on day 34) is -2 % of control; the T/C (dose: 100.0 mg/kg/injection, vehicle: saline, evaluated on day 40) is 53 % of control.
With `CN1CCN(CCCN2c3ccccc3Sc3ccc(C(F)(F)F)cc32)CC1`, the survivor count reads like this: under setting [7], 0 of 5 on day 36; under setting [8], 0 of 5 on day 36; under setting [9], 0 of 5 on day 36.
Turning to `O=CC(S)CO` (centres undefined), the survivor count was 1 of 5 on day 39 under setting [7], 3 of 5 on day 39 under setting [9] and 3 of 5 on day 39 under setting [10].
Take `OCC1OC(n2cnc3cncnc32)C(O)C1O` (centres undefined): the survivor count under setting [7] is 0 of 5 on day 40.
Regarding `CN(N=O)C(=O)N[C@@H](C=O)[C@@H](O)[C@H](O)[C@H](O)CO`, the survivor count was 0 of 5 on day 34 under setting [9] and 0 of 5 on day 34 under setting [10].
For `CNC=O`, the survivor count runs as follows: under setting [10], 3 of 5 on day 36; (dose: 1600.0 mg/kg/injection, vehicle: saline) 3 of 5 on day 36.
On to `CN(C)N=Nc1cccc(C(N)=O)c1`, for which, where the note is “dose: 50.0 mg/kg/injection, vehicle: Klucel (hydroxypropylcellulose) (HPC), evaluated on day 39”, the T/C is 140 % of control. The survivor count was 2 of 5 on day 39 under setting [4]; 0 of 5 on day 39 and 1 of 5 on day 39 under setting [5]; 0 of 5 on day 39 under setting [3].
Regarding `COc1cc(NS(C)(=O)=O)ccc1Nc1c2ccccc2nc2ccccc12`, the survivor count (dose: 16.0 mg/kg/injection, vehicle: saline + alcohol) is listed as 3 of 5 on day 35; the survivor count (dose: 32.0 mg/kg/injection, vehicle: saline + alcohol) was 0 of 5 on day 35; the survivor count (dose: 64.0 mg/kg/injection, vehicle: saline + alcohol) is given as 0 of 5 on day 35.
With `COc1cccc2c1C(=O)c1c(O)c3c(c(O)c1C2=O)C[C@@](O)(/C(C)=N\O)C[C@@H]3OC1CC(N)C(O)C(C)O1` (some centres undefined), the survivor count was 0 of 5 on day 36 under setting [6], 0 of 5 on day 36 under setting [7] and 0 of 5 on day 36 under setting [8].
With `NC(=O)c1ccc[n+](Cc2c(Cl)cccc2Cl)c1`, the T/C runs as follows: (dose: 6.0 mg/kg/injection, vehicle: saline, evaluated on day 39) 147 % of control; (dose: 12.0 mg/kg/injection, vehicle: saline, evaluated on day 39) 126 % of control; (dose: 48.0 mg/kg/injection, vehicle: saline, evaluated on day 34) 135 % of control [4 of 5 alive on day 36]. Further, the survivor count under setting [2] is 3 of 5 on day 36.
As for `Nc1cc2[nH]cnc2c(=O)[nH]1`, under setting [9], the survivor count is 3 of 5 on day 36.
As to `N[C@@H](Cc1ccc(N(CCCl)CCCl)cc1)C(=O)O`, the survivor count (dose: 4.0 mg/kg/injection, vehicle: saline) is 3 of 5 on day 40; the survivor count (dose: 8.0 mg/kg/injection, vehicle: saline) is reported as 0 of 5 on day 40; the survivor count under setting [1] is recorded as 0 of 5 on day 40; the survivor count (dose: 16.0 mg/kg/injection, vehicle: suspension in saline) was 0 of 5 on day 40.
For `CC(=O)OCC1OC(n2cc(CBr)nn2)C(OC(C)=O)C(OC(C)=O)C1OC(C)=O` (centres undefined), the survivor count (dose: 200.0 mg/kg/injection, vehicle: saline with Tween-80) is reported as 3 of 5 on day 36.

The record behind these values is PubChem BioAssay AID294 (DTP/NCI, 2004).
